Some results were stated once for a whole list of compounds, not compound by compound.
Tested on: type L1210 intra-peritoneal lymphoma
Assay: Mortality of mice carrying type L1210 intra-peritoneal lymphoma
Assay type: in vivo
Conditions: median survival times
Protocol: Mice carrying a type L1210 intra-peritoneal lymphoma were treated for 7 days in parallel with the following preparations: • SYN857 (A): chlorophosphoenol pyruvate • SYN856 (B): chlorophosphoenol pyruvate and carnitine ester • BCNU: carmustine • Vehicle: control
The weight of the animals for each group as well as the individual weight curves as a function of time were plotted and the mortality of the animals was monitored.
The parameter T/C% is calculated with the ratio of the median survival time of the animals in the group considered to the median survival time of the animals in the control group, all multiplied by 100.

Row | Substance | Ratio % Treated/controls (T/C%) (30 mg/kg/inj.) [%] | Ratio % Treated/controls (T/C%) (60 mg/kg/inj.) [%] | Ratio % Treated/controls (T/C%) (70 mg/kg/inj.) [%] | Ratio % Treated/controls (T/C%) (136 mg/kg/inj.) [%]
1 | chlorophosphoenol pyruvate and carnitine ester [SYN856] | > 128 | > 128 | – | –
2 | chlorophosphoenol pyruvate [SYN857] | – | – | > 128 | > 128

From US20070280918A1, “Multitherapy Against Cancer” (priority 2004, published 2007)
